Data from patent publication US20210107958A1, “GLYPICAN EPITOPES AND USES THEREOF” (MINOMIC INTERNATIONAL LTD., priority 2015, published 2021).

System: cells in the urine of prostate cancer patients
Assay: MIL38 indirect immunofluorescence assay (IFA) on cells from patient urine
Type: cell-based, human
[1] = 125 urine samples: 47 healthy, 37 BPH, 41 prostate cancers

B1: MIL38-AM4: Murine anti human glypican 1 monoclonal antibody produced by hybridoma cells deposited at Cellbank Australia under accession number CBA20140026 (antibody)
heavy: QIQLVQSGPELKKPGETVKISCKASGYAFTDYSMNWVKQAPGKGLRWMGWINTETGEPTYTDDFKGRFAFSLETSASTAFLQINNLRNEDTATYFCARHYDYGGFPYWGQGTLVTVSAAKTTPPSVYPLAPGSAAQTNSMVTLGCLVKGYFPEPVTVTWNSGSLSSGVHTFPAVLQSDLYTLSSSVTVPSSTWPSETVTCNVAHPASSTKVDKKIVPRDCGCKPCICTVPEVSSVFIFPPKPKDVLTITLTPKVTCVVVDISKDDPEVQFSWFVDDVEVHTAQTQPREEQFNSTFRSVSELPIMHQDWLNGKEFKCRVNSAAFPAPIEKTISKTKGRPKAPQVYTIPPPKEQMAKDKVSLTCMITDFFPEDITVEWQWNGQPAENYKNTQPIMDTDGSYFVYSKLNVQKSNWEAGNTFTCSVLHEGLHNHHTEKSLSHSPGK
light: DIQMTQSPASLSASVGETVTITCRASGNVHNYLAWYQQKQGKSPQLLVYTAKTLADGVPSRFSGSGSGTQYSLKINSLQPEDFGTYYCQHFWSNPWTFGGGTKLEIKRADAAPTVSIFPPSSEQLTSGGASVVCFLNNFYPKDINVKWKIDGSERQNGVLNSWTDQDSKDSTYSMSSTLTLTKDEYERHNSYTCEATHKTSTSPIVKSFNRNEC
- sensitivity in identifying prostate cancers within the cohort [1]: 71%
- specificity in identifying prostate cancers within the cohort [1]: 73%
- sensitivity in identifying prostate cancers compared to BPH patients (BPH only): 71%
- specificity in identifying prostate cancers compared to BPH patients (BPH only): 76%
